Reference: the supplement of paper PMC12542422
Structures can show the parent of a compound that is named as a salt. ± gives the standard deviation of the averaged measurements. Some of the results follow. These are raw signals, not scaled to a control.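 Ribosome-assembly readouts in HeLa cells were imaged via ENP1 staining, with or without export block, or inducible tagged ribosomal protein reporters. Machine learning classified per-cell signal location versus solvent (DMSO) controls. Hits surpassed the DMSO false-positive mean by five standard deviations and were visually confirmed; three biological replicates.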

What follows are molecules tested on HeLa RPS2-YFP reporter (assay: fraction of reporter-positive cells with nuclear (nucleolar or nucleolar/nucleoplasmic) RPS2-YFP (MainHitrate); higher = more cells with nucleolar/nuclear readout signal (for ENP1 -LMB: less RNAPI inhibition; for +LMB ENP1 and RP reporters: stronger nuclear/nucleolar retention, i.e. ribosome biogenesis defect)). Conditions: concentration: 1 µM; treatment time: 6 h.

Structure (SMILES) | fraction of reporter-positive cells with nuclear
CC1(C)O[C@@H]2C[C@H]3[C@@H]4CCC5=CC(=O)C=C[C@]5(C)[C@H]4[C@@H](O)C[C@]3(C)[C@]2(C(=O)CO)O1 [Desonide] | 0.147 ± 0.1
Cc1ncc(C[n+]2csc(CCO)c2C)c(N)n1 [Thiamine HCl (Vitamin B1)] | 0.105 ± 0.088
CCCOc1ccc(C(=O)OCCN(CC)CC)cc1N [Proparacaine HCl] | 0.1 ± 0.056
NC[C@@H]1O[C@H](O[C@H]2[C@@H](O)[C@H](O[C@@H]3[C@@H](O)[C@H](N)C[C@H](N)[C@H]3O[C@H]3O[C@H](CO)[C@@H](O)[C@H](O)[C@H]3N)O[C@@H]2CO)[C@H](N)[C@@H](O)[C@@H]1O [Paromomycin Sulfate] | 0.124 ± 0.085
C[C@@H]1C(=O)O[C@H]2C[C@@]34[C@H]5C[C@@H](C(C)(C)C)[C@]36[C@@H](OC(=O)[C@@H]6O)O[C@@]4(C(=O)O5)[C@]21O [Ginkgolide A] | 0.104 ± 0.074
CC(C)C(=O)Oc1ccc(CO)cc1[C@H](CCN(C(C)C)C(C)C)c1ccccc1 [Fesoterodine fumarate (Toviaz)] | 0.115 ± 0.087
CC(COc1ccccc1)N(CCCl)Cc1ccccc1 (centres undefined) [Phenoxybenzamine HCl] | 0.118 ± 0.04
CCc1c2c(nc3ccc(OC(=O)N4CCC(N5CCCCC5)CC4)cc13)-c1cc3c(c(=O)n1C2)COC(=O)[C@]3(O)CC [Irinotecan HCl Trihydrate (Campto)] | 0.11 ± 0.068
Cc1ccc(NC(=O)c2ccc(CN3CCN(C)CC3)cc2)cc1Nc1nccc(-c2cccnc2)n1 [Imatinib (Gleevec)] | 0.0846 ± 0.055

An excerpt from above in order of length of the SMILES, high to low.
Structure (SMILES) | fraction of reporter-positive cells with nuclear
C[C@@H]1C(=O)O[C@H]2C[C@@]34[C@H]5C[C@@H](C(C)(C)C)[C@]36[C@@H](OC(=O)[C@@H]6O)O[C@@]4(C(=O)O5)[C@]21O [Ginkgolide A] | 0.104 ± 0.074
CC1(C)O[C@@H]2C[C@H]3[C@@H]4CCC5=CC(=O)C=C[C@]5(C)[C@H]4[C@@H](O)C[C@]3(C)[C@]2(C(=O)CO)O1 [Desonide] | 0.147 ± 0.1
CC(C)C(=O)Oc1ccc(CO)cc1[C@H](CCN(C(C)C)C(C)C)c1ccccc1 [Fesoterodine fumarate (Toviaz)] | 0.115 ± 0.087
